The numbers were not newly measured in PMC4407688 (Drug metabolism and drug interactions, 2014), which cites them from elsewhere.

Molecules are shown by their SMILES.

For the data set the following is noted: coadministration together with CsA; ref [16], [34], [35]; cited from earlier work.

For `CC(C)c1c(C(=O)Nc2ccccc2)c(-c2ccccc2)c(-c2ccc(F)cc2)n1CC[C@@H](O)C[C@@H](O)CC(=O)O` [atorvastatin], the “Increased AUC of statin” value was 8.69 fold.
